Reference: paper PMC5128726, “Mechanism and Regulation of DNA-Protein Crosslink Repair by the DNA-Dependent Metalloprotease SPRTN”

Amino acid sequences for entries named in this document (tags omitted). A change or cut given only in a name is not applied to a line headed by its entry.
UniProt Q9H040: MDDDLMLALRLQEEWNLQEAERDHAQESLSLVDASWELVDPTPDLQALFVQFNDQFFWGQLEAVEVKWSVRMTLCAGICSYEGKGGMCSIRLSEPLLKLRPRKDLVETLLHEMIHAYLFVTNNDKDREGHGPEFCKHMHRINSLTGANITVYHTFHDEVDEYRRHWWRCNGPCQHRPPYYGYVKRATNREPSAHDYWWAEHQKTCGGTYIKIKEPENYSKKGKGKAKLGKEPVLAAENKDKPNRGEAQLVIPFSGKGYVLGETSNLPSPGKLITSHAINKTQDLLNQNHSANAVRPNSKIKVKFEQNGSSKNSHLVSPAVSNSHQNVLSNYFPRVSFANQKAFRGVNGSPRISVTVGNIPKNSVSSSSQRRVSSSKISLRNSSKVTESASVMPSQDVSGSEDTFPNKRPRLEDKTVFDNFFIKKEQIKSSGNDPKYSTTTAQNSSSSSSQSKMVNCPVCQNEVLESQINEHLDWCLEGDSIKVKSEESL

Target: SPRTN-auto (Homo sapiens) (UniProt Q9H040)
Assay: EMSA
Details: 250 nM DNA, 0.5-1 uM protein, shift slightly less than full length; Oligo EMSA: protein in 250 mM NaCl, 50 mM HEPES pH 7.5, 10% glycerol mixed 1:1 with DNA in 0.2 mg/ml BSA; 20 min on ice; 6% PAGE; recombinant protein; protein details: N-terminal GST; label: 5' Alexa488; single-stranded DNA

## ACGCTGCCGAATTCTACCAGTGCCTTGCTA [Alexa488 30-mer ss oligonucleotide]
  binding result: binds

Construct, isoform or probe ends are uncertain for at least one entry.
